Compound in this test: Nc1nc2c(ncn2[C@@H]2O[C@H](COP(=O)(O)OP(=O)(O)OP(=O)(O)O)[C@@H](O)[C@H]2O)c(=O)[nH]1 [guanosine triphosphate]
In words: NP40-soluble protein abundance relative to vehicle (solubility fold change) (ratio); higher = more soluble protein in presence of GTP. On the procedure: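 Solubility proteome profiling in Jurkat crude lysate. Lysate was treated with Mg-GTP (0.1-10 mM) for 10 min at room temperature and 3 min at 37 °C, then solubilised with 0.8% NP40 and benzonase, followed by ultracentrifugation. Proteins were quantified by TMT10 LC-MS/MS; the value is the NP40-soluble abundance relative to the NP40-processed vehicle, from 3 independent experiments.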

Protein sequences, listed by entry. Tags and fused reporters are not part of them. Lines headed by an entry give the natural chain unless they say otherwise; changes in a name come on top.
UniProt O75663: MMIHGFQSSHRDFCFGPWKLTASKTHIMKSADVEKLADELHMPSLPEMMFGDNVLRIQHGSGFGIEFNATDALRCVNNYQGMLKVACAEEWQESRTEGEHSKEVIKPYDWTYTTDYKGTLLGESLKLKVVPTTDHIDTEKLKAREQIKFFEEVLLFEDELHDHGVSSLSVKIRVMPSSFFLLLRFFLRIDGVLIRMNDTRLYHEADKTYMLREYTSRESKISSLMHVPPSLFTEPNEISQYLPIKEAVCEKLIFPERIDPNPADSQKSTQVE
UniProt O95831, whole entry: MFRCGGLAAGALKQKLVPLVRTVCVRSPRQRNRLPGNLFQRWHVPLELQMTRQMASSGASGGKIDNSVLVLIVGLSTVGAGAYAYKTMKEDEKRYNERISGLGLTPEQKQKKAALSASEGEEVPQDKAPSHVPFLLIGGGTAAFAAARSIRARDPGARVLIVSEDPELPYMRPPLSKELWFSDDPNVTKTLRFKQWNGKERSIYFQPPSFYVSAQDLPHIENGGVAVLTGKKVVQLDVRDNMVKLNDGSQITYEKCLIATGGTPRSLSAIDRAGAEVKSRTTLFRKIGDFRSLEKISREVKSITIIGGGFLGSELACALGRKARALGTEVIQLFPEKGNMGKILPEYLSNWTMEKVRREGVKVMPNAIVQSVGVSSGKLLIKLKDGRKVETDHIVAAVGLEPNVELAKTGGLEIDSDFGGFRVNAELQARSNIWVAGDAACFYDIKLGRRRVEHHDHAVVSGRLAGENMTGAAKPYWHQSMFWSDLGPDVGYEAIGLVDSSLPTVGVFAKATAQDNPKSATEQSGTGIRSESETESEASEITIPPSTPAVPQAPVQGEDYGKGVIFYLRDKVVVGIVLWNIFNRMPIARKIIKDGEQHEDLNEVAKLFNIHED
UniProt O75131: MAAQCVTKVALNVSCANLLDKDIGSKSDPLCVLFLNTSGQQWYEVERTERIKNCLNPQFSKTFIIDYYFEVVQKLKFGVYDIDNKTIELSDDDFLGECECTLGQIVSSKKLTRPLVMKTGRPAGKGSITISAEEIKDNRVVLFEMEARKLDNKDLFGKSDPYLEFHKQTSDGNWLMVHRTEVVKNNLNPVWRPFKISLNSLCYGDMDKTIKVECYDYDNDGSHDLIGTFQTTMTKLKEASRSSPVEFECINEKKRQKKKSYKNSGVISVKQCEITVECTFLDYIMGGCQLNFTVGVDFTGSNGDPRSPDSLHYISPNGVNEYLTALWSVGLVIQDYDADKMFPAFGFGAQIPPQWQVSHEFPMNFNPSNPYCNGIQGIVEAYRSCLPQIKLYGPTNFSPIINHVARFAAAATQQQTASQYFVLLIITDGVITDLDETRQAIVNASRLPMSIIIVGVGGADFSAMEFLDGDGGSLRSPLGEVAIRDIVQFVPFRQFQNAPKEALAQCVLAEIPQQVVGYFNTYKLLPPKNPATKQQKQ
UniProt O75844: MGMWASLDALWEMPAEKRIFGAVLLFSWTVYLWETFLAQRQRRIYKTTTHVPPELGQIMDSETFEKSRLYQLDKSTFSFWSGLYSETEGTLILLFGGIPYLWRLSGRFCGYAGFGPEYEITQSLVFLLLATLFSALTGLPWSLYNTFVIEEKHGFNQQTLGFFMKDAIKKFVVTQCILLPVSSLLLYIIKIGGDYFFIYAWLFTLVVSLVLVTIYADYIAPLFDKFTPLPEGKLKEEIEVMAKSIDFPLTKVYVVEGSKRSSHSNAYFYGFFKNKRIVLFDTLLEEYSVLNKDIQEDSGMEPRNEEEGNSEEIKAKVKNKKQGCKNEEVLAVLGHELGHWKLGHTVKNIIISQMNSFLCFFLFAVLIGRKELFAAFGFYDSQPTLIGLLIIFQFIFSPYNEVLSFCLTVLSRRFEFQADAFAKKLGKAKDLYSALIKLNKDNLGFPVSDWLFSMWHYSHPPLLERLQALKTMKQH

± gives the standard deviation of the averaged measurements. The list shows a part of the results.

Consider TIPRL (UniProt O75663), for which the NP40-soluble protein abundance (concentration: 0.1mM) stood at 0.988 ± 0.076; the NP40-soluble protein abundance (concentration: 0.5mM) stood at 0.99 ± 0.026; the NP40-soluble protein abundance (concentration: 1mM) was determined as 0.926 ± 0.077; the NP40-soluble protein abundance (concentration: 2mM) was found to be 0.886 ± 0.081; the NP40-soluble protein abundance (concentration: 4mM) was 0.885 ± 0.097; the NP40-soluble protein abundance (concentration: 6mM) turned out to be 0.883 ± 0.079. In addition, the NP40-soluble protein abundance turned out to be 0.88 ± 0.11 (concentration: 8mM) and 0.842 ± 0.11 (concentration: 10mM).

For the target UniProt O95831 and related entries, the NP40-soluble protein abundance came out at 0.9864 ± 0.0082 (concentration: 0.1mM); 1.01 ± 0.021 (concentration: 0.5mM); 0.937 ± 0.014 (concentration: 1mM); 0.949 ± 0.016 (concentration: 2mM); 0.93 ± 0.02 (concentration: 4mM); 0.926 ± 0.016 (concentration: 6mM). Further, the NP40-soluble protein abundance (concentration: 8mM) was 0.894 ± 0.036 and the NP40-soluble protein abundance (concentration: 10mM) was 0.882 ± 0.05.

GPI (UniProt P06744): the NP40-soluble protein abundance is, setting by setting: (concentration: 0.1mM) 0.939 ± 0.031; (concentration: 0.5mM) 0.96 ± 0.016; (concentration: 1mM) 0.895 ± 0.04; (concentration: 2mM) 0.889 ± 0.016; (concentration: 4mM) 0.859 ± 0.019; (concentration: 6mM) 0.879 ± 0.012. Also, the NP40-soluble protein abundance (concentration: 8mM) stood at 0.847 ± 0.042 and the NP40-soluble protein abundance (concentration: 10mM) stood at 0.846 ± 0.044.

Turning to CPNE3 (UniProt O75131), the NP40-soluble protein abundance runs as follows: (concentration: 0.1mM) 0.971 ± 0.015; (concentration: 0.5mM) 0.958 ± 0.051; (concentration: 1mM) 0.87 ± 0.039; (concentration: 2mM) 0.872 ± 0.033; (concentration: 4mM) 0.871 ± 0.017; (concentration: 6mM) 0.852 ± 0.022. Moreover, the NP40-soluble protein abundance came to 0.817 ± 0.063 (concentration: 8mM) and 0.806 ± 0.073 (concentration: 10mM).

Regarding ZMPSTE24 (UniProt O75844), the NP40-soluble protein abundance by setting is: (concentration: 0.1mM) 0.933 ± 0.035; (concentration: 0.5mM) 0.987 ± 0.08; (concentration: 1mM) 0.814 ± 0.04; (concentration: 2mM) 0.863 ± 0.059; (concentration: 4mM) 0.817 ± 0.028; (concentration: 6mM) 0.844 ± 0.052. For the same target, the NP40-soluble protein abundance amounted to 0.758 ± 0.062 (concentration: 8mM) and 0.769 ± 0.084 (concentration: 10mM).

Source of the values: the supplement of paper PMC6411743.
